Consider 2 substances from article PMC4709046.

By UniProt entry, the sequences of proteins in these tests, tags left out. Where a name states a change or a piece, a line headed by the entry shows the natural chain unless it says otherwise.
UniProt P21918: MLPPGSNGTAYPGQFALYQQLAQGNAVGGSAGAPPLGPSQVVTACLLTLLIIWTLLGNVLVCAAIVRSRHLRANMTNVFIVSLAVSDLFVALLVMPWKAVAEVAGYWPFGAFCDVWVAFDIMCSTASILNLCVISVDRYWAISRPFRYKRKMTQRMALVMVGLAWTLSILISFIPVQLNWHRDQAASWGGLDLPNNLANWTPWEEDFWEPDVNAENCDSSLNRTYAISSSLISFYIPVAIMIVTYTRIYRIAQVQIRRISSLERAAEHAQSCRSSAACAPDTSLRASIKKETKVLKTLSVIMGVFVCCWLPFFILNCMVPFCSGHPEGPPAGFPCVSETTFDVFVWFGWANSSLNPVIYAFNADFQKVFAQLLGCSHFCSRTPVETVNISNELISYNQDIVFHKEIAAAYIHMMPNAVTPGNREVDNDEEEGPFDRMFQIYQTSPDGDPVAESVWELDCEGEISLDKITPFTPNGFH

No constants are given. Whether binding was seen depends on the method and setting. In cells and extracts the contact can be indirect. Some entries that bind do so weakly or less than the wild type.

For assay [1], the target named is T1, cholecystokinin B receptor (gastrin receptor) (human (endogenous in HK-2)) (UniProt P32239).
T1 sequence: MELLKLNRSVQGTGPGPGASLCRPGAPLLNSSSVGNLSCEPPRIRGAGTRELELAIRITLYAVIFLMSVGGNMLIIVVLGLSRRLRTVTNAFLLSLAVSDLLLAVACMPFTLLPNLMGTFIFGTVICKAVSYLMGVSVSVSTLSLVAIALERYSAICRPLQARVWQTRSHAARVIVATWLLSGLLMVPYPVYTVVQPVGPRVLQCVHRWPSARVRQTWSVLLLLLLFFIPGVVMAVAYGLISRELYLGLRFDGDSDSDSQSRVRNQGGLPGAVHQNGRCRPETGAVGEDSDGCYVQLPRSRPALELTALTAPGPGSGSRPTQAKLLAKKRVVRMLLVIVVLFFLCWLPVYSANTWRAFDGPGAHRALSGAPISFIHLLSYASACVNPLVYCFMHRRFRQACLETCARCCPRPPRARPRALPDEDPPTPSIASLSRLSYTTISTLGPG
Nature of the assay: co-IP; whole cell lysates (500 ug protein, RIPA buffer) mixed with mouse anti-D5R or mouse anti-CCKBR antibody, protein A/G agarose overnight at 4 C; blotted with rabbit anti-CCKBR or rabbit anti-D5R antibody; non-immune mouse serum as negative control.

In assay [2] the target is T2, full-length human CCKBR (stably expressed in HEK293-D5R-CCKBR cells) (human) (UniProt P32239).
T2 sequence: T1 sequence
The description is as above.

As for “dopamine D5 receptor (from UniProt P21918 1-477)”, in assay [1], the binding result is “binds”.

“full-length human D5R (stably overexpressed in HEK293-D5R-CCKBR cells) (from UniProt P21918 1-477) (receptor)”: the binding entry in assay [2] is on record as “binds”.
